Reference: patent US9085541B2, “Process for producing imine compounds for combating invertebrate pests” (priority 2010, dated 2015)
Some entries share one result that the patent states for a list of compounds.

Tested on: tobacco budworm (Heliothis virescens)
Assay: Tobacco budworm (Heliothis virescens) I: 96-well microtiter plates with insect diet and eggs, egg and larval mortality
Type: in vivo
Conditions: at 2500 ppm; sprayed onto insect diet; 5 days incubation; in comparison with untreated controls

Row | Compound | mortality (egg and larval mortality, visually assessed)
1 | Cc1cc(C2=NOC(c3cc(Cl)cc(Cl)c3)(C(F)(F)F)C2)ccc1C=NNC(=O)NC(C)c1cccnc1 (stereo not drawn) [Compound 1-86] | at least 75%
2 | O=C(NCc1ccccc1)NN=Cc1ccc(C2=NOC(c3cc(Cl)cc(Cl)c3)(C(F)(F)F)C2)cc1Cl (stereo not drawn) [Compound 4-31] | at least 75%
3 | Cc1cc(C2=NOC(c3cc(Cl)cc(Cl)c3)(C(F)(F)F)C2)ccc1C=NNC(=O)NCCC(F)=C(F)F (stereo not drawn) [Compound 1-72] | at least 75%
4 | CCOc1cc(C2=NOC(c3cc(Cl)cc(Cl)c3)(C(F)(F)F)C2)ccc1C=NNC(=O)NCC(F)(F)F (racemic) [Compound 11-1] | at least 75%
5 | Cc1cc(C2=NOC(c3cc(Cl)cc(Cl)c3)(C(F)(F)F)C2)ccc1C=NNC(=O)NCC(C)C (stereo not drawn) [Compound 1-5] | at least 75%
6 | Cc1cc(C2=NOC(c3cc(Cl)cc(Cl)c3)(C(F)(F)F)C2)ccc1C=NNC(=O)NCc1ncccn1 (racemic) [Compound 1-43] | at least 75%
7 | Cc1cc(C2=NOC(c3cc(Cl)cc(Cl)c3)(C(F)(F)F)C2)ccc1C=NNC(=O)NC(C)C (stereo not drawn) [Compound 1-30] | at least 75%
8 | O=C(NCc1ccncn1)NN=Cc1ccc(C2=NOC(c3cc(Cl)cc(Cl)c3)(C(F)(F)F)C2)cc1C(F)(F)F (stereo not drawn) [Compound 2-19] | at least 75%
9 | CNC(=O)CNC(=O)NN=Cc1ccc(C2=NOC(c3cc(Cl)cc(Cl)c3)(C(F)(F)F)C2)cc1C (racemic) [Compound 1-55] | at least 75%
10 | Cc1cc(C2=NOC(c3cc(Cl)cc(Cl)c3)(C(F)(F)F)C2)ccc1C=NNC(=O)NC1CCCC1 (stereo not drawn) [Compound 1-29] | at least 75%
11 | COc1cc(C2=NOC(c3cc(Cl)cc(Cl)c3)(C(F)(F)F)C2)ccc1C=NNC(=O)NCCC(F)=C(F)F (stereo not drawn) [Compound 9-12] | at least 75%
12 | Cc1cc(C2=NOC(c3cc(Cl)cc(Cl)c3)(C(F)(F)F)C2)ccc1C=NNC(=O)NCCC(C)C (stereo not drawn) [Compound 1-17] | at least 75%
